Tested on: bacterial culture
Experiment: Minimum inhibitory concentration (MIC), serial 2-fold dilution in 96-well plate
Type: cell-based
Settings: overnight incubation in TSB, inoculum 0.2 OD
Experimental: The biological activity of the ceragenin and quaternary ammonium compounds can be determined by standard methods known to those of skill in the art, such as the “minimum inhibitory concentration (MIC)” assay, whereby the lowest concentration at which no change in optical density (OD) is observed for a given period of time is recorded as MIC. When the compound alone is tested against a control that lacks the compound, the antimicrobial effect of the compound alone is determined.
To evaluate minimum inhibitory concentrations (MICs), the concentration of the twenty four hour culture in log phase is adjusted by diluting in tryptic soy broth (TSB) so that an optical density of 0.2 at 610nm is obtained. The bacterial culture is then ready to be used for testing.
Three solutions are prepared: (1) 1% CPC solution in ethanol; (2) 1% solution of the Compound of Formula (II) in water; and (3) 0.5% of a Compound of Formula (II) +0.5% CPC. The solutions are diluted 1:9 in TSB. They are added to a 96-well plate and a serial dilution (2-fold) is made across the plate. The bacterial inoculum at 0.2 OD, 1000, is added to every well. The plate is incubated overnight and read on a plate reader the following day.

CCCCCCCCCCCCCCCC[n+]1ccccc1 [CPC, cetylpyridinium chloride, reference compound]
MIC: 0.98 µg/mL

Source: patent US9345655B2, “Oral care compositions” (BRIGHAM YOUNG UNIVERSITY, priority 2011, dated 2016)
